{"source": "the supplement of paper PMC6411743", "target": "T1, SEMA4D (UniProt Q92854)", "T1 sequence (whole entry)": "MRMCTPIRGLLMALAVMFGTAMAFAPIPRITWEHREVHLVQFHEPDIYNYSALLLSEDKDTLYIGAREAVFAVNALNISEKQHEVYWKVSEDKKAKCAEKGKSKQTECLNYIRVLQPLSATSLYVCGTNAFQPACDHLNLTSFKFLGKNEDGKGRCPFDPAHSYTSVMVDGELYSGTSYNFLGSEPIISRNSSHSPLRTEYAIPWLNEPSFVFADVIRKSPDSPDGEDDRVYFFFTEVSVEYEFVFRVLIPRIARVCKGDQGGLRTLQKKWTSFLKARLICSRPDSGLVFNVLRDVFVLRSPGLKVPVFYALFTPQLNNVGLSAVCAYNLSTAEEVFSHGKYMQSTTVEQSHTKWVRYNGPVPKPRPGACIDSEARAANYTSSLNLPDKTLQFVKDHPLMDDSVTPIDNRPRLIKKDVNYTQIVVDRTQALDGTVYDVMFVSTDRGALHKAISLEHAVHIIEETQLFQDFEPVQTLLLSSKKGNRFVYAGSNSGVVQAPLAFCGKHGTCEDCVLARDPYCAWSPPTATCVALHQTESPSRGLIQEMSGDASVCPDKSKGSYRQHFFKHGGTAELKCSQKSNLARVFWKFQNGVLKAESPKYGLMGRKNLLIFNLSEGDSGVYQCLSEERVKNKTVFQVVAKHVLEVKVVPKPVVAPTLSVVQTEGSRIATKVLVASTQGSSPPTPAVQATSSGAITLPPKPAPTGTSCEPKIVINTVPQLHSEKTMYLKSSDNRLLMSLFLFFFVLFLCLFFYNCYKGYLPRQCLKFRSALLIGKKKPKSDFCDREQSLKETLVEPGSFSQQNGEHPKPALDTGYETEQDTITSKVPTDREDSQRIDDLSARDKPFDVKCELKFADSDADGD", "assay": "NP40-soluble protein abundance relative to vehicle (solubility fold change) (ratio); higher = more soluble protein in presence of GTP", "protocol": "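Solubility proteome profiling in Jurkat crude lysate. Lysate was treated with Mg-GTP (0.1-10 mM) for 10 min at room temperature and 3 min at 37 °C, then solubilised with 0.8% NP40 and benzonase, followed by ultracentrifugation. Proteins were quantified by TMT10 LC-MS/MS; the value is the NP40-soluble abundance relative to the NP40-processed vehicle, from 3 independent experiments.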", "note": "± gives the standard deviation of the averaged measurements. This is one part of the list."}
{"smiles": "Nc1nc2c(ncn2[C@@H]2O[C@H](COP(=O)(O)OP(=O)(O)OP(=O)(O)O)[C@@H](O)[C@H]2O)c(=O)[nH]1", "note": "[guanosine triphosphate]", "values": [{"measurement": "NP40-soluble protein abundance", "setting": "concentration: 0.1mM", "result": "0.942 ± 0.029"}, {"measurement": "NP40-soluble protein abundance", "setting": "concentration: 0.5mM", "result": "0.911 ± 0.044"}, {"measurement": "NP40-soluble protein abundance", "setting": "concentration: 1mM", "result": "0.946 ± 0.069"}, {"measurement": "NP40-soluble protein abundance", "setting": "concentration: 2mM", "result": "0.915 ± 0.087"}, {"measurement": "NP40-soluble protein abundance", "setting": "concentration: 4mM", "result": "0.89 ± 0.081"}, {"measurement": "NP40-soluble protein abundance", "setting": "concentration: 6mM", "result": "0.918 ± 0.082"}, {"measurement": "NP40-soluble protein abundance", "setting": "concentration: 8mM", "result": "0.926 ± 0.053"}, {"measurement": "NP40-soluble protein abundance", "setting": "concentration: 10mM", "result": "0.912 ± 0.028"}]}
